Source: patent US5891657A (priority 1994, dated 1999)

The compounds below were run on anti-analyte antibody (assay: Effect of potentially interfering substances on the immunoassay). Conditions: up to 0.5M.
Design: species or system rabbit
In the case of [Cl-].[Na+] [Sodium chloride], the “effect on the assay” value is reported as “no significant effect”.

Same assay, conditions: up to 500 ppm
In the case of [Fe] [iron], the “effect on the assay” value is reported as “no effect”.
For O=S(O)O [sulfite], the “effect on the assay” value was “no effect”.
In the case of [Mn+2] [manganese], the “effect on the assay” value is reported as “no effect”.

Same assay, conditions: up to 1000 ppm
O=S(=O)(O)O [sulfate] was tested, and the “effect on the assay” value was “no significant effect”.
[Ca+2] [calcium] was tested, and the “effect on the assay” value was “no significant effect”.
With O=S(O)(O)=S [thiosulfate] the “effect on the assay” value was “no significant effect”.
In the case of [Zn] [zinc], the “effect on the assay” value is reported as “no significant effect”.
[Cu] [copper] was tested, and the “effect on the assay” value was “no significant effect”.

Same assay, conditions: up to 2500 ppm
With O=[N+]([O-])O [nitrate] the “effect on the assay” value was “no significant effect”.
For [Mg+2] [magnesium], the “effect on the assay” value was “no significant effect”.
[Ni] [nickel] was tested, and the “effect on the assay” value was “no significant effect”.
For phosphates, the “effect on the assay” value was “no significant effect”.
